{"source": "paper PMC6558801", "target": "T1, Flag-tagged PLEK2 (pleckstrin-2), stably expressed in NOZ cells (UniProt Q9NYT0)", "T1 sequence": "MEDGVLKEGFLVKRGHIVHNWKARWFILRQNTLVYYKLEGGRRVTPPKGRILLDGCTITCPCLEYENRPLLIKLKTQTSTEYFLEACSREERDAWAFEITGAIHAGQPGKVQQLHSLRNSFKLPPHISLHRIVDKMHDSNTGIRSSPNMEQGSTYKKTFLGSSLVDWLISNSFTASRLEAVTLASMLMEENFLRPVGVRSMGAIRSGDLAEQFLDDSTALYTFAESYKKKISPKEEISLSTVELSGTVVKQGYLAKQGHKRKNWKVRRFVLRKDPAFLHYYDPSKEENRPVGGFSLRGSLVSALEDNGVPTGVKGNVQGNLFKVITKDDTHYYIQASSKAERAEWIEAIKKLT", "assay": "affinity purification with mass spectrometry; lysate of NOZ cells stably overexpressing Flag-PLEK2 against control cells; immunoprecipitation as in the co-IP method, eluates run on a gel and stained with coomassie, HPLC and Orbitrap Elite", "note": "These are yes or no findings as the source states them, for the method shown. Binding seen in cells or lysates may run through a third protein. These calls come from enrichment with a bait or labelling near it, and not all partners need be listed. Where a sequence is shown, tags or fusion partners need not be part of it.", "data": [{"substance": "endogenous EGFR (epidermal growth factor receptor) of NOZ cells (from UniProt P00533 25-1210)", "values": [{"measurement": "binding", "result": "binds"}]}]}
